These results are taken from paper PMC7862700.

The chains behind the UniProt entries cited, without tags or fusion partners. Where a name states a change or a piece, a line headed by the entry shows the natural chain unless it says otherwise.
UniProt Q01892: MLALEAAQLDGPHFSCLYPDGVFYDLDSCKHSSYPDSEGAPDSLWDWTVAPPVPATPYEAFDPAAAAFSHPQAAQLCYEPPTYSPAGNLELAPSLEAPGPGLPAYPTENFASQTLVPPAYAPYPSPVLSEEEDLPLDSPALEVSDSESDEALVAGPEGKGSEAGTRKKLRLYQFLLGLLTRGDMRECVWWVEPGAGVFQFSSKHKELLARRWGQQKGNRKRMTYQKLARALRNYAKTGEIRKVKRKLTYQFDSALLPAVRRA
UniProt P41161: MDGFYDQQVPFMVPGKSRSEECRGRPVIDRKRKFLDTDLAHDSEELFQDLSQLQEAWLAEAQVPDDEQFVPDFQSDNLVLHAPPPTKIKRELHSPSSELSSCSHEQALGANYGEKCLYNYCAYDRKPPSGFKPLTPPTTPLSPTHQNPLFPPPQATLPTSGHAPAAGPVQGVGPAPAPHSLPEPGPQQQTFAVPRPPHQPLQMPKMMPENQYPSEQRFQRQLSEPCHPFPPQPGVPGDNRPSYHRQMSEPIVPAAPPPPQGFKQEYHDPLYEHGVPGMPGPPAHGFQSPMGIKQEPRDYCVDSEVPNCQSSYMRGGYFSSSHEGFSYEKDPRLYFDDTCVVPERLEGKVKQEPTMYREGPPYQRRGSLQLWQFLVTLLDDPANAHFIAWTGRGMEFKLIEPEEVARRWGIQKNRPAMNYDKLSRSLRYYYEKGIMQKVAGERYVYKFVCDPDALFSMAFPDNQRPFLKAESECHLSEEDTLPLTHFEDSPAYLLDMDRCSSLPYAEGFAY
UniProt Q99607: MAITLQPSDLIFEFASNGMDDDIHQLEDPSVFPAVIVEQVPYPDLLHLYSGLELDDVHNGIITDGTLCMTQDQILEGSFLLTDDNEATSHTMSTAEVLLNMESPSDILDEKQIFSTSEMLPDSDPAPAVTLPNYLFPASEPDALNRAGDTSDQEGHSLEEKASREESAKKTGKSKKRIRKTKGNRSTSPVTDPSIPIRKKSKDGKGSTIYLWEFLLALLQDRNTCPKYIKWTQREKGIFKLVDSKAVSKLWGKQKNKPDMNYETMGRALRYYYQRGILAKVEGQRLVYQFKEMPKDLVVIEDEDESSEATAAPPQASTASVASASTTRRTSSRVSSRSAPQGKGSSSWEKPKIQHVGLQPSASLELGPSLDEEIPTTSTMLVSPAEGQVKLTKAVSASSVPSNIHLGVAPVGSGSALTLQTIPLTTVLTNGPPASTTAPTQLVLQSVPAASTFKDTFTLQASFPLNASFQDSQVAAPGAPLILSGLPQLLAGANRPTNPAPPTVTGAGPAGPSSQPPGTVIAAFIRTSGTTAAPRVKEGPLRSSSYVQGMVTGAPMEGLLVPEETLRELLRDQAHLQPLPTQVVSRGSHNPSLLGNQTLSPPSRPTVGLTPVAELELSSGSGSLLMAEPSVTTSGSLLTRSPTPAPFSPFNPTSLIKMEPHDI

Only a part is listed here, and it is no random draw. At the low end of the ranking, values are background and their order means little.

Holding throughout (assay): DAPPL (digital affinity profiling via proximity ligation, sequencing)
Holding throughout (conditions): 10 mM Tris-HCl pH 7.5, 50 mM NaCl, 1 mM DTT, 4% glycerol, room temperature, 30 min; GST-TFs on glutathione beads, 16-mer random dsDNA library, 0.1% …; high values mean tight binding; double strand, one strand shown; scale: fold enrichment (6-mer frequency, TF over GST control)

Assay [1] has as its target T1, FLI1 (UniProt Q01543).
T1 sequence: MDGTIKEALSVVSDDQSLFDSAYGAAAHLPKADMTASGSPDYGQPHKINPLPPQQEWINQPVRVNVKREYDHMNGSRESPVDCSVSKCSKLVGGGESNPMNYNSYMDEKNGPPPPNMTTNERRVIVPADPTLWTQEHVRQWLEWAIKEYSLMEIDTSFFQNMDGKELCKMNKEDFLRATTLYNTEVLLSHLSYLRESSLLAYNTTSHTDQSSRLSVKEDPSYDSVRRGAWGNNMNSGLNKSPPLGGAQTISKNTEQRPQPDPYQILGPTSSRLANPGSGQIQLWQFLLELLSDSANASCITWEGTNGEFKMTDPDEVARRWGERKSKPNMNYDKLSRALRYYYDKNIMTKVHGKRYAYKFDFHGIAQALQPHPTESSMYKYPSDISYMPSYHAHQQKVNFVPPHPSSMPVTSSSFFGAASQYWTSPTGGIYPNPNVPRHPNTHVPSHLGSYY

Assay [2] deals with T2, EHF (UniProt Q9NZC4).
T2 sequence: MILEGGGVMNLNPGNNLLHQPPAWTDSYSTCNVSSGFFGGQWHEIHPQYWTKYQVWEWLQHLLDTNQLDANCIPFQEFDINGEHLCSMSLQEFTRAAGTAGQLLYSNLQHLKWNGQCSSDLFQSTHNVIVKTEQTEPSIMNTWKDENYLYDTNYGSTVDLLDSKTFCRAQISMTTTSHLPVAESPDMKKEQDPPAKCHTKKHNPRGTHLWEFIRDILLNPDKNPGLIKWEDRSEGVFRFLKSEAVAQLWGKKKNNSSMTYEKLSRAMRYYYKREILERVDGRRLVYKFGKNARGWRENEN

Assay [3] concerns the target SPIB (UniProt Q01892).
The target of assay [4] is ETV5 (UniProt P41161).
The target in assay [5] is ELF4 (UniProt Q99607).
Assay [6] deals with T3, ETV2 (UniProt O00321).
T3 sequence: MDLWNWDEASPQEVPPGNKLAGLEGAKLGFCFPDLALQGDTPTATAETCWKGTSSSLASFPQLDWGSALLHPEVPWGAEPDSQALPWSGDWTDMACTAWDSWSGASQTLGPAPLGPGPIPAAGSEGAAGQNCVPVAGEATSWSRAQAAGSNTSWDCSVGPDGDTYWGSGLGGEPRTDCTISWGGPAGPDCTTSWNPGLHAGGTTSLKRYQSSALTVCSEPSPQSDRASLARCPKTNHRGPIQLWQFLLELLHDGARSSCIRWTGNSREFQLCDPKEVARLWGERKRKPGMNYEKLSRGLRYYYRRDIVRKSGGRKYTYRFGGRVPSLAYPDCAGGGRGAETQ

The target of assay [7] is T4, ETV3L (UniProt Q6ZN32).
T4 sequence: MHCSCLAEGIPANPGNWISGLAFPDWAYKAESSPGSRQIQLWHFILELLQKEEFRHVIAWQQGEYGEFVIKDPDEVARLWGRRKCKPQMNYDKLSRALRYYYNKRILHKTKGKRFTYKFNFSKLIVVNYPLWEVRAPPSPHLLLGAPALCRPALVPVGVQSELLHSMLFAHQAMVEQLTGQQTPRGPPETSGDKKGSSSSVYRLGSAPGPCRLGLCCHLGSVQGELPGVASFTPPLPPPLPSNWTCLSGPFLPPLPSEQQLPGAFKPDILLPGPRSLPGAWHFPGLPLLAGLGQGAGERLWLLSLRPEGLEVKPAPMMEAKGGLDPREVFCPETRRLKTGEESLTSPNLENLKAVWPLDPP

As to CGTGTA, the binding signal in assay [1] was 0.722; in assay [2], 0.659; in assay [3], 0.661; in assay [4] it was 0.645; in assay [5] it was 0.662; in assay [6] it was 0.612. Besides, the binding signal in assay [7] amounted to 0.626.

In the case of GCGGGC, the binding signal in assay [1] turned out to be 0.749; in assay [2] it was 0.756; in assay [3], 0.893; in assay [4], 0.743; in assay [5], 0.759; in assay [6] it was 0.742. In addition, the binding signal in assay [7] is 0.703.

Consider GAGCCT, for which the binding signal in assay [1] was determined as 0.889; in assay [2] it was 0.822; in assay [3], 0.765; in assay [4] it was 0.818; in assay [5], 0.841; in assay [6], 0.842. The binding signal in assay [7] worked out at 0.775.

Consider CAGTCC, for which the binding signal was found to be 0.655 in assay [1]; 0.612 in assay [2]; 0.647 in assay [3]; 0.626 in assay [4]; 0.666 in assay [5]; 0.618 in assay [6]. The sequence further showed a binding signal in assay [7] of 0.657.

Consider GGCCAT, for which the binding signal in assay [1] stood at 0.783; in assay [2], 0.849; in assay [3], 0.859; in assay [4], 0.866; in assay [5], 0.876; in assay [6], 0.845. The sequence also gave a binding signal in assay [7] of 0.916.

As to GTCGCC, the binding signal was determined as 0.841 in assay [1]; 0.858 in assay [2]; 0.824 in assay [3]; 0.859 in assay [4]; 0.851 in assay [5]; 0.873 in assay [6]. Besides, the binding signal in assay [7] worked out at 0.868.

Turning to TCGGAT, the binding signal in assay [1] was 0.512; in assay [2] it was 0.513; in assay [3], 0.526; in assay [4] it was 0.533; in assay [5] it was 0.475; in assay [6], 0.506. This sequence gave a binding signal in assay [7] of 0.532.

As to GACGAA, the binding signal came to 0.879 in assay [1]; 0.899 in assay [2]; 0.936 in assay [3]; 0.898 in assay [4]; 0.862 in assay [5]; 0.779 in assay [6]. Further, in assay [7], the binding signal came out at 0.862.

Consider GGTAAG, for which the binding signal in assay [1] came to 0.779; in assay [2], 0.718; in assay [3], 0.737; in assay [4], 0.761; in assay [5], 0.694; in assay [6] it was 0.815. For the same sequence, the binding signal in assay [7] was found to be 0.743.

For the sequence AACGTG, the binding signal in assay [1] is 0.353; in assay [2] it was 0.42; in assay [3], 0.351; in assay [4], 0.367; in assay [5], 0.373; in assay [6] it was 0.414. Moreover, the binding signal in assay [7] was 0.38.

For GGCCCA, the binding signal in assay [1] came to 0.879; in assay [2], 0.749; in assay [3], 0.917; in assay [4] it was 0.861; in assay [5], 0.891; in assay [6] it was 0.926. For the same sequence, the binding signal in assay [7] was 0.827.

On to GGTGTC, for which the binding signal in assay [1] came out at 0.757; in assay [2], 0.711; in assay [3] it was 0.83; in assay [4] it was 0.819; in assay [5], 0.847; in assay [6], 0.834. The sequence also registered a binding signal in assay [7] of 0.802.

Take CGTGAG: the binding signal came out at 0.135 in assay [1]; 0.128 in assay [2]; 0.11 in assay [3]; 0.132 in assay [4]; 0.114 in assay [5]; 0.13 in assay [6]. This sequence came in with a binding signal in assay [7] of 0.128.

As for GAGTGC, the binding signal in assay [1] was 0.704; in assay [2], 0.698; in assay [3], 0.61; in assay [4], 0.691; in assay [5] it was 0.731; in assay [6], 0.739. For the same sequence, the binding signal in assay [7] amounted to 0.797.

For the sequence CAGTCT, the binding signal in assay [1] came out at 0.794; in assay [2], 0.76; in assay [3] it was 0.747; in assay [4] it was 0.693; in assay [5] it was 0.755; in assay [6], 0.709. This sequence also had a binding signal in assay [7] of 0.705.

With GTCGAG, the binding signal came out at 0.44 in assay [1]; 0.495 in assay [2]; 0.467 in assay [3]; 0.439 in assay [4]; 0.449 in assay [5]; 0.482 in assay [6]. Further, the binding signal in assay [7] came out at 0.468.

Regarding ACCGGG, the binding signal stood at 0.496 in assay [1]; 0.531 in assay [2]; 0.529 in assay [3]; 0.536 in assay [4]; 0.514 in assay [5]; 0.443 in assay [6]. The same sequence had a binding signal in assay [7] of 0.498.

For GAGCGA, the binding signal in assay [1] came to 0.604; in assay [2], 0.64; in assay [3], 0.57; in assay [4], 0.596; in assay [5], 0.668; in assay [6], 0.735. In assay [7], this sequence gave a binding signal of 0.669.

As to CGGTCC, the binding signal in assay [1] amounted to 0.926; in assay [2], 0.96; in assay [3], 0.968; in assay [4] it was 0.991; in assay [5] it was 0.979; in assay [6], 0.896. In assay [7], the binding signal was found to be 0.959.

Regarding GAGTAA, the binding signal in assay [1] is 0.563; in assay [2], 0.568; in assay [3], 0.562; in assay [4], 0.574; in assay [5], 0.555; in assay [6], 0.525. Further, the binding signal in assay [7] came out at 0.517.

On to AGTCTG, for which the binding signal was 0.683 in assay [1]; 0.64 in assay [2]; 0.615 in assay [3]; 0.587 in assay [4]; 0.58 in assay [5]; 0.589 in assay [6]. The sequence further yielded a binding signal in assay [7] of 0.558.

With AGGCGC, the binding signal was 0.534 in assay [1]; 0.52 in assay [2]; 0.521 in assay [3]; 0.577 in assay [4]; 0.577 in assay [5]; 0.648 in assay [6]. Also, in assay [7], the binding signal amounted to 0.631.

For the sequence GCATCG, the binding signal in assay [1] amounted to 0.731; in assay [2], 0.783; in assay [3], 0.786; in assay [4], 0.794; in assay [5] it was 0.838; in assay [6] it was 0.766. Also, the binding signal in assay [7] turned out to be 0.774.

Take CCTGTC: the binding signal was 0.995 in assay [1]; 0.933 in assay [2]; 0.898 in assay [3]; 0.975 in assay [4]; 0.904 in assay [5]; 0.767 in assay [6]. This sequence also had a binding signal in assay [7] of 0.857.

Take GTCTGA: the binding signal turned out to be 0.78 in assay [1]; 0.754 in assay [2]; 0.784 in assay [3]; 0.729 in assay [4]; 0.79 in assay [5]; 0.878 in assay [6]. For the same sequence, the binding signal in assay [7] came to 0.72.

As for GAGTTC, the binding signal came to 0.79 in assay [1]; 0.719 in assay [2]; 0.725 in assay [3]; 0.802 in assay [4]; 0.729 in assay [5]; 0.779 in assay [6]. In addition, the binding signal in assay [7] stood at 0.745.

As to CCATCG, the binding signal in assay [1] was 0.874; in assay [2], 0.813; in assay [3] it was 0.781; in assay [4] it was 0.802; in assay [5] it was 0.857; in assay [6] it was 0.829. In assay [7], this sequence displayed a binding signal of 0.933.

Turning to CAATCG, the binding signal in assay [1] worked out at 0.888; in assay [2], 0.858; in assay [3], 0.819; in assay [4], 0.862; in assay [5], 0.857; in assay [6], 0.882. The sequence also showed a binding signal in assay [7] of 0.917.

On to GACCAT, for which the binding signal in assay [1] was 0.847; in assay [2], 0.823; in assay [3], 0.838; in assay [4], 0.791; in assay [5], 0.889; in assay [6], 0.896. The same sequence displayed a binding signal in assay [7] of 0.867.

As for ACAGGG, the binding signal in assay [1] was determined as 0.819; in assay [2], 0.802; in assay [3] it was 0.809; in assay [4], 0.764; in assay [5], 0.863; in assay [6] it was 0.688. Besides, the binding signal in assay [7] worked out at 0.764.
